Results taken from patent US8603966B2, “Amino acid-based compounds, their methods of use, and methods of screening” (The Administrators of the Tulane Educational Fund, priority 2009, dated 2013).
Part of at least one peptide drawing is inferred or uncertain, most often the ends. Residues, ends and D or L forms follow the SMILES beside them. *: point of attachment. X1 = CN(C)c1ccc2c(c1)Oc1cc(N(C)C)ccc1C21OC(=O)c2ccc(C(=O)*)cc21

Tested on: Chinese Hamster Ovary (CHO) cells
Test: Cell penetration by laser scanning confocal fluorescence microscopy
Format: cell-based
Details: 25° C., SD ±10 min
Protocol: Laser Scanning Confocal Fluorescence Microscopy: Some translocating peptides were synthesized and labeled with the fluorescent dye TAMRA on either their amino terminus (N-labeled) or on a C-terminal cysteine residue (C-labeled). Live Chinese Hamster Ovary (CHO) cells were used to assess the ability of the labeled peptides to translocate across living cell membrane into the cells without causing toxicity.
CHO cells were incubated with peptide that was labeled on a C-terminal cysteine residue with the red fluorescent dye TAMRA. Cells and labeled peptide were incubated for 10 minutes in minimal media at 37° C. Cells were then washed to remove labeled peptide from the solution. The minimal media was replaced and 1 μM NBD (7-nitrobenz-2-oxa-1,3-diazol-4-yl) labeled lyso-phosphatidylthanolamine was added to the cells to label the plasma membrane. […]
Panels A-G of FIG. 6 show representative CFM images monitoring the translocation of a labeled peptide with SEQ ID NO. […] CHO cells were incubated with the TAMRA-labeled peptide in minimal media and monitored over time at 25° C. without washing. […]
In this experiment, the externally added labeled peptide has not been washed away so the solution itself is fluorescent due to added TAMRA-labeled peptide. The black silhouettes in Panel A show the location of cells; before labeled-peptide entry, there is no fluorescence inside the cells. […]

Compound	Cell Penetrating Half-time (1.7-5 μM) [min]	Cell Penetrating Half-time (1.7-10 μM) [min]
CC(C)C[C@H](NC(=O)CNC(=O)[C@H](CCCCN)NC(=O)[C@H](CCCNC(=N)N)NC(=O)c1ccc2c(c1)C1(OC2=O)c2ccc(N(C)C)cc2Oc2cc(N(C)C)ccc21)C(=O)N[C@@H](CC(C)C)C(=O)N[C@@H](CCC(N)=O)C(=O)N[C@@H](CC(C)C)C(=O)N[C@@H](CC(C)C)C(=O)N[C@@H](CC(C)C)C(=O)NCC(=O)N[C@@H](CCC(N)=O)C(=O)N[C@@H](Cc1ccccc1)C(=O)O [SEQ ID NO: 18 (N-labeled), Arg-Lys-Gly-Leu-Leu-Gln-Leu-Leu-Leu-Gly-Gln-Phe] (X1-RKGLLQLLLGQF-OH)	<30	–
CC[C@H](C)[C@H](NC(=O)[C@H](CCCNC(=N)N)NC(=O)[C@H](CCCNC(=N)N)NC(=O)c1ccc2c(c1)C1(OC2=O)c2ccc(N(C)C)cc2Oc2cc(N(C)C)ccc21)C(=O)N[C@@H](CC(C)C)C(=O)N[C@@H](CC(C)C)C(=O)N[C@@H](CCC(N)=O)C(=O)N[C@@H](CC(C)C)C(=O)N[C@@H](CC(C)C)C(=O)N[C@@H](CCCNC(=N)N)C(=O)NCC(=O)N[C@@H](CCC(N)=O)C(=O)N[C@@H](Cc1ccccc1)C(=O)O [SEQ ID NO: 10 (N-labeled), Arg-Arg-Ile-Leu-Leu-Gln-Leu-Leu-Arg-Gly-Gln-Phe] (X1-RRILLQLLRGQF-OH)	–	15
